The list shows a part of the results. Shown are side measurements of this screen, not its main read-out; they come without a call. Compounds called inactive in the main read-out are mostly missing here. The note in brackets gives the kind of curve behind each potency; many fits are weak.
Test: qHTS Assay for Lipid Storage Modulators in Drosophila S3 Cells;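 as to cell number change: cells counted by Cell Tracker Red CMTPX staining in the red channel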
Details: BODIPY lipid droplet fluorescence, 18-24 h; for cell number change: measured here: cell count max response, cells fed with added oleic acid
Summary of the method: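 Drosophila S3 cells got compounds at several concentrations plus oleic acid (400 uM solution). Laser-scanning cytometry with 488 nm excitation read lipid droplets at 500-530 nm and cells at 575-640 nm. Percent activity was relative to 20 uM Triacsin C.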

[1] = measured here: lipid fluorescence (Fed channel) AC50, cells fed with added oleic acid
[2] = measured here: cell number channel AC50, cells fed with added oleic acid

Compound | cell number change [%] | AC50 [1] | AC50 [2]
CN(C)c1ccc(C(C(=O)NCC2CCCO2)N(Cc2ccco2)C(=O)c2snc(C(N)=O)c2N)cc1 (stereo unspecified) | 3.85 | 0.0651 µM [rising, partial curve] | 
CCOc1cc(CNS(=O)(=O)c2ccc3c(c2)CC(=O)N3C)cc(OCC)c1OCC |  | 0.366 µM [rising, single point] | 
Cn1c(=O)c2c(ncn2CC(=O)N2CCN(S(=O)(=O)c3ccccc3)CC2)n(C)c1=O | 5.22 | 0.501 µM [rising, full curve, poor fit] | 
c1ccc2c(c1)nc1n2CCN1CCN1CCCC1 | 2.24 | 0.00461 µM [rising, full curve, poor fit] | 
COC(=O)[C@@]12CCCN1[C@H](c1ccc(-c3ccc(OC)cc3)cc1)[C@@H]1C(=O)N(C)C(=O)[C@@H]12 | -16.4 | 0.58 µM [falling, full curve, poor fit] | 
Cc1nnc(SCC(=O)NC(C)(C)C)n1NCc1c(F)cccc1Cl | 29.4 | 0.00461 µM [rising, full curve] | 
CC(C)C1C(C#N)=C(N)Oc2n[nH]c(-c3ccccc3)c21 (stereo unspecified) | -31.5 | 29.1 µM [falling, single point] | 18.4 µM [falling, single point]
CCOC(=O)c1ccc(NC(=S)NN2CCN(C)CC2)cc1 | -12.4 | 11.6 µM [falling, partial curve] | 6.51 µM [falling, single point]
O=C(NCc1cccs1)c1ccc(CS(=O)(=O)c2ccc(Cl)cc2)o1 |  | 0.411 µM [rising, partial curve, poor fit] | 0.731 µM [rising, full curve]
O=C(COc1ccc(/C=C\[N+](=O)[O-])cc1)N1CCOCC1 | -91.9 | 29.1 µM [falling, single point] | 29.1 µM [falling, single point]
O=C(CC(c1ccccc1)c1cc(Br)ccc1O)N1CCCC1 (stereo unspecified) | -43.8 | 0.708 µM [falling, full curve] | 
CCS(=O)(=O)n1nc(-c2cccnc2)nc1NCc1ccc(F)cc1 | 17.3 | 0.0651 µM [rising, full curve, poor fit] | 
CCOC(=O)C1=C(O)/C(=C/c2ccc(OCC(=O)O)c(OCC)c2)SC1=Nc1ccc(C)cc1 | 12.4 | 2.06 µM [rising, single point] | 
O=C(NCc1ccccn1)C(=O)NCC1OCCN1S(=O)(=O)c1ccc([N+](=O)[O-])cc1 (stereo unspecified) | 23.3 | 0.116 µM [rising, full curve, poor fit] | 
O=C(NNC(=O)c1ccc2c(=O)n3c(nc2c1)CCC3)c1ccc(Cl)cc1 | -0.0627 |  | 
O=[N+]([O-])c1ccc(O)c(/C=N/n2c(-c3ccccc3)n[nH]c2=S)c1 | -11.3 | 6.51 µM [rising, single point] | 
COc1ccc(N2CCN(C(=O)CSc3nnc(-c4cccnc4)n3-c3ccccc3)CC2)cc1 |  | 0.0731 µM [falling, single point] | 0.82 µM [rising, full curve, poor fit]
O=C(CN(CC1CCCO1)C(=O)CNS(=O)(=O)c1ccc(F)cc1)NCc1ccc(F)cc1 (stereo unspecified) | 14.1 |  | 
CCN(CC)S(=O)(=O)c1cccc(NC(=O)COc2ncnc3sccc23)c1 | 65.8 | 3.26 µM [rising, single point] | 18.4 µM [rising, partial curve]

Ordered by length of the SMILES (ascending): 3 of the compounds above.
Compound | cell number change [%] | AC50 [1] | AC50 [2]
c1ccc2c(c1)nc1n2CCN1CCN1CCCC1 | 2.24 | 0.00461 µM [rising, full curve, poor fit] | 
O=C(NCc1cccs1)c1ccc(CS(=O)(=O)c2ccc(Cl)cc2)o1 |  | 0.411 µM [rising, partial curve, poor fit] | 0.731 µM [rising, full curve]
CCOC(=O)C1=C(O)/C(=C/c2ccc(OCC(=O)O)c(OCC)c2)SC1=Nc1ccc(C)cc1 | 12.4 | 2.06 µM [rising, single point] | 

The list continues.

Compound | cell number change [%] | AC50 [1] | AC50 [2]
Cc1ccc(S(=O)(=O)NCC(=O)NCC(=O)NCCc2ccccc2F)cc1C | 8.53 | 0.82 µM [rising, full curve, poor fit] | 
O=C(Cc1ccc(Br)cc1)N/N=C/c1ccc(-c2cccc(C(=O)O)c2)o1 | 9.01 | 0.366 µM [rising, single point] | 
COc1ccc(/C=C/C2=NC(=C\N(C)C)/C(=O)O2)cc1 | -22 | 16.4 µM [falling, single point] | 
NS(=O)(=O)c1ccc(CNC(=O)c2cc(-c3cccs3)nc3ccccc23)cc1 | -3.84 |  | 
CO/N=C(/CNC(=O)c1ccc(Cl)cc1Cl)c1ccc(Cl)cc1 |  | 0.461 µM [rising, full curve, poor fit] | 
Cc1ccccc1OCC(=O)Nc1ccc(C(=O)Nc2ccccc2C(=O)O)cc1 | 31.4 | 5.8 µM [rising, full curve] | 
CCCCN(C(=O)CCSc1ccc(F)cc1)c1c(N)n(Cc2ccccc2)c(=O)[nH]c1=O |  | 0.517 µM [falling, full curve, poor fit] | 
C=CCO/N=C(/C)c1ccc(Oc2cnccn2)cc1 | 39 |  | 20.6 µM [rising, single point]
Cc1cccc(S(=O)(=O)NCCc2cn3ccccc3n2)c1 | 24.4 | 29.1 µM [falling, single point] | 0.164 µM [rising, full curve, poor fit]
O=C(CCN1CCN(c2ccc(Cl)cc2)CC1)Nc1ccccc1F | -0.99 | 0.092 µM [rising, full curve, poor fit] | 
O=C1N(c2cccc3ccccc23)C(c2ccccc2)N2CCCN12 (stereo unspecified) | 82.8 | 29.1 µM [rising, single point] | 23.1 µM [rising, single point]
CN(CC(=O)Nc1ccccc1Cl)C(=O)COC(=O)c1cnccn1 | -40.5 |  | 29.1 µM [falling, single point]
CCOc1ccc2c(c1)c1nnc(SCC3CCCO3)nc1n2C (stereo unspecified) | -13.8 |  | 
COc1cc(C(=O)NCC(=O)N/N=C/c2ccc(-c3ccc([N+](=O)[O-])cc3)o2)cc(OC)c1OC | 27.7 | 29.1 µM [rising, single point] | 
Cc1cc(OCC(=O)Nn2cnnc2)ccc1Br | 1.75 |  | 
CCN(CC)S(=O)(=O)c1ccc(N2CCN(c3ccccc3O)CC2)nc1 | -31.6 |  | 7.31 µM [falling, partial curve, poor fit]
O=C(O)CN(c1ccc2c(c1)OCCO2)S(=O)(=O)c1ccccc1 | -16 |  | 
Cc1cc(Nc2ccccc2)nc(N)n1 | 22.4 | 32.6 µM [rising, single point] | 

From PubChem BioAssay AID2685 (National Center for Advancing Translational Sciences (NCATS), 2010)
